Source: article PMC11610224
These are yes or no findings as the source states them, for the method shown. In cells and extracts the contact can be indirect. Here binding means that the protein was enriched with, or labelled near, the bait; the list need not be complete.

Amino acid sequences for entries named in this document (tags omitted).
UniProt Q9C0C7: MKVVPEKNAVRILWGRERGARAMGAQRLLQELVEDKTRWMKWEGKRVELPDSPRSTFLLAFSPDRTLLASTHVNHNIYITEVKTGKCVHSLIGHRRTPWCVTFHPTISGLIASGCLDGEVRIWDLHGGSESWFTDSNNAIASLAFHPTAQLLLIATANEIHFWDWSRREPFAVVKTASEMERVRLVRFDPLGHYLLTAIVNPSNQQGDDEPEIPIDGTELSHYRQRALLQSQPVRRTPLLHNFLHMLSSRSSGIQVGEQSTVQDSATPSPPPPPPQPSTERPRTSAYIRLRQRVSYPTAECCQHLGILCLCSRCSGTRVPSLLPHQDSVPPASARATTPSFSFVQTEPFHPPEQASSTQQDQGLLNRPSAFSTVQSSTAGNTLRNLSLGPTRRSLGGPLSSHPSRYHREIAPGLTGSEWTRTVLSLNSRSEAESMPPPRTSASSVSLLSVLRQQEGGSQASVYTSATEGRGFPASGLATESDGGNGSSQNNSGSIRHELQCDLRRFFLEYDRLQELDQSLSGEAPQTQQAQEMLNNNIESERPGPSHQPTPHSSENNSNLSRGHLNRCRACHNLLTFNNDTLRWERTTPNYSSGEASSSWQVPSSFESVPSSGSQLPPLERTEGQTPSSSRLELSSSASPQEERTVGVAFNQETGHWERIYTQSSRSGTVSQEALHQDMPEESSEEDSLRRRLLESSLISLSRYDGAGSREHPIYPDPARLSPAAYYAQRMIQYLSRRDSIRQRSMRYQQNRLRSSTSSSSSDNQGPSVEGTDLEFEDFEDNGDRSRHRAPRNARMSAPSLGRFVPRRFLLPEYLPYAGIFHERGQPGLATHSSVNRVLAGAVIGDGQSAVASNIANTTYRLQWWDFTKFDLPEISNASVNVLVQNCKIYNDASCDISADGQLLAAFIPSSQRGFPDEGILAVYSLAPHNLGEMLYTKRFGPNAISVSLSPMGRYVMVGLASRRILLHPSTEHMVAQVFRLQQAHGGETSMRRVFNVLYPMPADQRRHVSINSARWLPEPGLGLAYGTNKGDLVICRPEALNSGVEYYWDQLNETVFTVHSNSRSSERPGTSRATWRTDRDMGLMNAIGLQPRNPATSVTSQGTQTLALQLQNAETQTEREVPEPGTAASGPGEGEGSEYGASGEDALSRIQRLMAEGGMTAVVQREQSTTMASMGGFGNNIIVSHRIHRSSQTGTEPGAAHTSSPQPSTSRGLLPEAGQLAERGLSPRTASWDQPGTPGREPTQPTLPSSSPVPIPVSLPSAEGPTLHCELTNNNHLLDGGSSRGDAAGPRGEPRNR
UniProt Q92624: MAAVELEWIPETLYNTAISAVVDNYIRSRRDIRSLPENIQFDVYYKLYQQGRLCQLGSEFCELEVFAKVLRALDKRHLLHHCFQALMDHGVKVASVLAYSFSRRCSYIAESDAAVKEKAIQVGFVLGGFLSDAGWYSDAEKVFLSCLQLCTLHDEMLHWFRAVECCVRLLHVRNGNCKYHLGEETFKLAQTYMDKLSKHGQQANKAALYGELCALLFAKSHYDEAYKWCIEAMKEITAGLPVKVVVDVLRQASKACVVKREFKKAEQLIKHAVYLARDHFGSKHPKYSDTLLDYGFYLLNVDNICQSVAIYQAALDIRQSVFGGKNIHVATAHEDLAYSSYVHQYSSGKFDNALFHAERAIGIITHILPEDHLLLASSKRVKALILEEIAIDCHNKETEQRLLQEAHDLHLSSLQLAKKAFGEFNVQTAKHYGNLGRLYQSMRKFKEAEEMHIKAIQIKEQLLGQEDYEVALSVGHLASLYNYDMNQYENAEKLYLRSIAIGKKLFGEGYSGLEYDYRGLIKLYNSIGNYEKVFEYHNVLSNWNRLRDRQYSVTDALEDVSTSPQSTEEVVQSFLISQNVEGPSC
UniProt Q9H672: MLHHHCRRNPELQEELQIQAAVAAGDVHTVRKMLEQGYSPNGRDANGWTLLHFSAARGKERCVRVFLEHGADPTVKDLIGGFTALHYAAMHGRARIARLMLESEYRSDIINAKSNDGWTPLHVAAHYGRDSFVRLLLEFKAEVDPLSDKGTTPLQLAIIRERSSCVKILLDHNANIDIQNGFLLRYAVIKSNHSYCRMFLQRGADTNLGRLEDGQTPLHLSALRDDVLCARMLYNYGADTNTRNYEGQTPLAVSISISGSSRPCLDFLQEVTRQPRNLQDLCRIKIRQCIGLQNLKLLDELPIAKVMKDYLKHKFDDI
UniProt P30279: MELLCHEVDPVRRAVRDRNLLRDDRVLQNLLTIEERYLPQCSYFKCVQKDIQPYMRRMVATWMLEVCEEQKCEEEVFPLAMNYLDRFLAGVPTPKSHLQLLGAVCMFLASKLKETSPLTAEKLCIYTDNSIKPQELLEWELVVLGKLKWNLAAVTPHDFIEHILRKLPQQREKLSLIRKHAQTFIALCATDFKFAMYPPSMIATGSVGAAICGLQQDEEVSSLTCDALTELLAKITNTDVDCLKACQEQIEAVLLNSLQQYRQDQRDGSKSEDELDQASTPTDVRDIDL
UniProt Q13620: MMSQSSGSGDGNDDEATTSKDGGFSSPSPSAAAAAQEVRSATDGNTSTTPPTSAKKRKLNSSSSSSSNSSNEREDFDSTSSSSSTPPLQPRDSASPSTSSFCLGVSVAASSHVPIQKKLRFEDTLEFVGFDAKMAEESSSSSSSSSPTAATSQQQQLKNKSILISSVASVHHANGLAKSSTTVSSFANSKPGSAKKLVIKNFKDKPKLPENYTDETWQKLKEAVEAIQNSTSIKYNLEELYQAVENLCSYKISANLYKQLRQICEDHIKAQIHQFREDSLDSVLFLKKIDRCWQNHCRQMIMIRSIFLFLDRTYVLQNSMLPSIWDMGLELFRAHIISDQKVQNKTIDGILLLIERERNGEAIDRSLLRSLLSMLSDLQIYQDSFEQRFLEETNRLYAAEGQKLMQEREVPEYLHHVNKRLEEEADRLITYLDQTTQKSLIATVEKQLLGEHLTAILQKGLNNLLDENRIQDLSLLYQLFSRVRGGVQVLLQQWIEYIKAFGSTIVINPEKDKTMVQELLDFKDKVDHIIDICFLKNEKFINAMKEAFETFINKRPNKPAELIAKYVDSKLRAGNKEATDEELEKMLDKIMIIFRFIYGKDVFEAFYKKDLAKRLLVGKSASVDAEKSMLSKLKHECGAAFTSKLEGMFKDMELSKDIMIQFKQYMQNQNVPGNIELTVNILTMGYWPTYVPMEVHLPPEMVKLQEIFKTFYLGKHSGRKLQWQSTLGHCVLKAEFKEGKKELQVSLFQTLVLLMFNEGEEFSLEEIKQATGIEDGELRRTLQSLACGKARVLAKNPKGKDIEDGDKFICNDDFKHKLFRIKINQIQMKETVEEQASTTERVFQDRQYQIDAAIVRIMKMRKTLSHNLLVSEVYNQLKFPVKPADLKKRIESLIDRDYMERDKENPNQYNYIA
UniProt P63167: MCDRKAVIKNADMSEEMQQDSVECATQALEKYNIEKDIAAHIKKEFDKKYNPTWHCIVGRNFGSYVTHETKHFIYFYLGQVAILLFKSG
UniProt Q15370: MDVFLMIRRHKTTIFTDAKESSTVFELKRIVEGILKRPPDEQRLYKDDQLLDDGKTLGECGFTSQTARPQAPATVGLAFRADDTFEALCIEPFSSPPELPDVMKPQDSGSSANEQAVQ
UniProt Q86X40: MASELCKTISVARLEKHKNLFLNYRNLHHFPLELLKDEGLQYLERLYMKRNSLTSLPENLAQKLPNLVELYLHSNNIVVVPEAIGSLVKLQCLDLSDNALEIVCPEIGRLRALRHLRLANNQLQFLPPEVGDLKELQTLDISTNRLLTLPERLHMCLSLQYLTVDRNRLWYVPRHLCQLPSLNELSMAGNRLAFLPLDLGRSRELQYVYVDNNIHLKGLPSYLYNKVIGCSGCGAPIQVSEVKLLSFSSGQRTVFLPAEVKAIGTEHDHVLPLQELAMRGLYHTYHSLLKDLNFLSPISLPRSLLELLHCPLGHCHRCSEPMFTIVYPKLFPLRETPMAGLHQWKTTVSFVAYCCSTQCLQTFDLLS
UniProt Q9Y2I1: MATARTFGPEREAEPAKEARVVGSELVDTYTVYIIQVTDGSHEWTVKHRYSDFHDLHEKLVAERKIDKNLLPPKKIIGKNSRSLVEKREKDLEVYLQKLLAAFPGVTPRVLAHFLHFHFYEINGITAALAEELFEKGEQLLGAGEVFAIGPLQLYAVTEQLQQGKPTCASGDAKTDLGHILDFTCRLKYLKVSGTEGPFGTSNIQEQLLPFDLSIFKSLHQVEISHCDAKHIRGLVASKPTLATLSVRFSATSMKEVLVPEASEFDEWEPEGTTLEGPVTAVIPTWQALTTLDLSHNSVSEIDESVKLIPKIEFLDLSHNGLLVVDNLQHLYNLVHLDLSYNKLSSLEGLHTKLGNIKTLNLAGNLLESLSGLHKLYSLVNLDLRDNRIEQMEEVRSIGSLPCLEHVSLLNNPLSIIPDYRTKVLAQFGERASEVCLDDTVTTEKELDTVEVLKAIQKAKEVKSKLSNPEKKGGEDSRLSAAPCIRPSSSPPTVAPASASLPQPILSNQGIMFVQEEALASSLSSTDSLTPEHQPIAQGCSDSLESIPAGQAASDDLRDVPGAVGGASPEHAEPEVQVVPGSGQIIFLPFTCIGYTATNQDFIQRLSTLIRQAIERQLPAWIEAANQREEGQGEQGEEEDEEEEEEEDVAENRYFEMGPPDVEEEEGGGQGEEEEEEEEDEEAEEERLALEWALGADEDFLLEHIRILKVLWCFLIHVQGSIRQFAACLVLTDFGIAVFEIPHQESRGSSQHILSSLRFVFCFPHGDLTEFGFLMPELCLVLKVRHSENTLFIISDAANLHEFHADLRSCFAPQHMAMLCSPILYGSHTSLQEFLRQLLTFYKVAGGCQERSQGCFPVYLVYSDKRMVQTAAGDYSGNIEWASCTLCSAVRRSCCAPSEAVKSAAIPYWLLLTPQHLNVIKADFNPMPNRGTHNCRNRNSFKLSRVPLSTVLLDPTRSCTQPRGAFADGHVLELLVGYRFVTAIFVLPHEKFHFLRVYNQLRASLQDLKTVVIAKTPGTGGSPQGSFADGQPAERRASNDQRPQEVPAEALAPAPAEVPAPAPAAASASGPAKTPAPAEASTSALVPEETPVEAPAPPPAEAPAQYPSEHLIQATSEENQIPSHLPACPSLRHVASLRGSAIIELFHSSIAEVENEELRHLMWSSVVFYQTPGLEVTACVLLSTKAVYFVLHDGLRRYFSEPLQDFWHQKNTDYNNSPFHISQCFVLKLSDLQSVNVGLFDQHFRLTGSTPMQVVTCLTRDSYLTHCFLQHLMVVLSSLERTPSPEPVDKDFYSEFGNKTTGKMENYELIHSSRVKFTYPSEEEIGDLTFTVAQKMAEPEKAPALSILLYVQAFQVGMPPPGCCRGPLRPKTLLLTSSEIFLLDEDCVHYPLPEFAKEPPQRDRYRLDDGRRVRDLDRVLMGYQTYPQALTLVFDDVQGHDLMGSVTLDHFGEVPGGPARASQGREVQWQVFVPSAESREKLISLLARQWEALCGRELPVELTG
UniProt Q96S21: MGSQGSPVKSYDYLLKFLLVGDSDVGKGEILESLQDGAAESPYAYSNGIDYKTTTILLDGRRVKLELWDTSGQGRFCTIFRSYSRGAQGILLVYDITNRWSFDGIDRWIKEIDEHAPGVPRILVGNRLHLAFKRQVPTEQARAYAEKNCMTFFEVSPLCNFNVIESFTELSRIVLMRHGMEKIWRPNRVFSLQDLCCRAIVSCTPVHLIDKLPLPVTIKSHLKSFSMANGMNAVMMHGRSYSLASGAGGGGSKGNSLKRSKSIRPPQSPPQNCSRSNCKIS
UniProt Q8WXH5: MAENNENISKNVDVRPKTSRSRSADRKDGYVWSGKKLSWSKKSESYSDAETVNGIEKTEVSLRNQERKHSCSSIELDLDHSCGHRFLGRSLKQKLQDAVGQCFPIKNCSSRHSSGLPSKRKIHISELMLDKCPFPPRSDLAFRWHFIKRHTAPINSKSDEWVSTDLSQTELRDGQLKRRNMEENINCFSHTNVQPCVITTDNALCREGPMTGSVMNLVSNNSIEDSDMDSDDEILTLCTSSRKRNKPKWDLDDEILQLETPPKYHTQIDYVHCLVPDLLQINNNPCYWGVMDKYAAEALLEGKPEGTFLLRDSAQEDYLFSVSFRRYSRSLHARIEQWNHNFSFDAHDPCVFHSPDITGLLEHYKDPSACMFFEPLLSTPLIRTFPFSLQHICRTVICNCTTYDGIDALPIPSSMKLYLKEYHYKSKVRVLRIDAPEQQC
UniProt Q96GD4: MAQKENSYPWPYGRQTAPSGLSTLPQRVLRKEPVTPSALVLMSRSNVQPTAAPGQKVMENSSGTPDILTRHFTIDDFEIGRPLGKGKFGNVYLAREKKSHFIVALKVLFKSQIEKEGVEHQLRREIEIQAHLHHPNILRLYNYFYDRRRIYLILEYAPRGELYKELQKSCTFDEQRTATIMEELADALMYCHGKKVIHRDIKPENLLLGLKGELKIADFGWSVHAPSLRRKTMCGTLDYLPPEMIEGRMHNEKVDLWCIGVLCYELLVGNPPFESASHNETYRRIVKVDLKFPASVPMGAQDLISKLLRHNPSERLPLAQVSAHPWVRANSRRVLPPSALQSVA

B1: WSB1 (protein, UniProt Q9Y6I7 1-421)
chain: MASFPPRVNEKEIVRLRTIGELLAPAAPFDKKCGRENWTVAFAPDGSYFAWSQGHRTVKLVPWSQCLQNFLLHGTKNVTNSSSLRLPRQNSDGGQKNKPREHIIDCGDIVWSLAFGSSVPEKQSRCVNIEWHRFRFGQDQLLLATGLNNGRIKIWDVYTGKLLLNLVDHTEVVRDLTFAPDGSLILVSASRDKTLRVWDLKDDGNMMKVLRGHQNWVYSCAFSPDSSMLCSVGASKAVFLWNMDKYTMIRKLEGHHHDVVACDFSPDGALLATASYDTRVYIWDPHNGDILMEFGHLFPPPTPIFAGGANDRWVRSVSFSHDGLHVASLADDKMVRFWRIDEDYPVQVAPLSNGLCCAFSTDGSVLAAGTHDGSVYFWATPRQVPSLQHLCRMSIRRVMPTQEVQELPIPSKLLEFLSYRI
B2: WSB2 (protein, UniProt Q9NYS7 1-404)
chain: MEAGEEPLLLAELKPGRPHQFDWKSSCETWSVAFSPDGSWFAWSQGHCIVKLIPWPLEEQFIPKGFEAKSRSSKNETKGRGSPKEKTLDCGQIVWGLAFSPWPSPPSRKLWARHHPQVPDVSCLVLATGLNDGQIKIWEVQTGLLLLNLSGHQDVVRDLSFTPSGSLILVSASRDKTLRIWDLNKHGKQIQVLSGHLQWVYCCSISPDCSMLCSAAGEKSVFLWSMRSYTLIRKLEGHQSSVVSCDFSPDSALLVTASYDTNVIMWDPYTGERLRSLHHTQVDPAMDDSDVHISSLRSVCFSPEGLYLATVADDRLLRIWALELKTPIAFAPMTNGLCCTFFPHGGVIATGTRDGHVQFWTAPRVLSSLKHLCRKALRSFLTTYQVLALPIPKKMKEFLTYRTF
B3: ASB1 (protein, UniProt Q9Y576 1-335)
chain: MAEGGSPDGRAGPGSAGRNLKEWLREQFCDHPLEHCEDTRLHDAAYVGDLQTLRSLLQEESYRSRINEKSVWCCGWLPCTPLRIAATAGHGSCVDFLIRKGAEVDLVDVKGQTALYVAVVNGHLESTQILLEAGADPNGSRHHRSTPVYHASRVGRADILKALIRYGADVDVNHHLTPDVQPRFSRRLTSLVVCPLYISAAYHNLQCFRLLLLAGANPDFNCNGPVNTQGFYRGSPGCVMDAVLRHGCEAAFVSLLVEFGANLNLVKWESLGPESRGRRKVDPEALQVFKEARSVPRTLLCLCRVAVRRALGKHRLHLIPSLPLPDPIKKFLLHE
B4: LRRC41 (protein, UniProt Q15345 1-812)
chain: MAAPEAWRARSCWFCEVAAATTMEATSREAAPAKSSASGPNAPPALFELCGRAVSAHMGVLESGVWALPGPILQSILPLLNIYYLERIEETALKKGLSTQAIWRRLWDELMKTRPSSLESVTCWRAKFMEAFFSHVLRGTIDVSSDRRLCDQRFSPLLHSSRHVRQLTICNMLQGATELVAEPNRRVLETLASSLHTLKFRHLLFSDVAAQQSLRQLLHQLIHHGAVSQVSLYSWPVPESALFILILTMSAGFWQPGPGGPPCRLCGEASRGRAPSRDEGSLLLGSRRPRRDAAERCAAALMASRRKSEAKQMPRAAPATRVTRRSTQESLTAGGTDLKRELHPPATSHEAPGTKRSPSAPAATSSASSSTSSYKRAPASSAPQPKPLKRFKRAAGKKGARTRQGPGAESEDLYDFVFIVAGEKEDGEEMEIGEVACGALDGSDPSCLGLPALEASQRFRSISTLELFTVPLSTEAALTLCHLLSSWVSLESLTLSYNGLGSNIFRLLDSLRALSGQAGCRLRALHLSDLFSPLPILELTRAIVRALPLLRVLSIRVDHPSQRDNPGVPGNAGPPSHIIGDEEIPENCLEQLEMGFPRGAQPAPLLCSVLKASGSLQQLSLDSATFASPQDFGLVLQTLKEYNLALKRLSFHDMNLADCQSEVLFLLQNLTLQEITFSFCRLFEKRPAQFLPEMVAAMKGNSTLKGLRLPGNRLGNAGLLALADVFSEDSSSSLCQLDISSNCIKPDGLLEFAKRLERWGRGAFGHLRLFQNWLDQDAVTAREAIRRLRATCHVVSDSWDSSQAFADYVSTM
B5: RNF187 (protein, UniProt Q5TA31 1-235)
chain: MALPAGPAEAACALCQRAPREPVRADCGHRFCRACVVRFWAEEDGPFPCPECADDCWQRAVEPGRPPLSRRLLALEEAAAAPARDGPASEAALQLLCRADAGPLCAACRMAAGPEPPEWEPRWRKALRGKENKGSVEIMRKDLNDARDLHGQAESAAAVWKGHVMDRRKKALTDYKKLRAFFVEEEEHFLQEAEKEEGLPEDELADPTERFRSLLQAVSELEKKHRNLGLSMLLQ
B6: GTF2H3 (protein, UniProt Q13889 1-308)
chain: MVSDEDELNLLVIVVDANPIWWGKQALKESQFTLSKCIDAVMVLGNSHLFMNRSNKLAVIASHIQESRFLYPGKNGRLGDFFGDPGNPPEFNPSGSKDGKYELLTSANEVIVEEIKDLMTKSDIKGQHTETLLAGSLAKALCYIHRMNKEVKDNQEMKSRILVIKAAEDSALQYMNFMNVIFAAQKQNILIDACVLDSDSGLLQQACDITGGLYLKVPQMPSLLQYLLWVFLPDQDQRSQLILPPPVHVDYRAACFCHRNLIEIGYVCSVCLSIFCNFSPICTTCETAFKISLPPVLKAKKKKLKVSA
B7: LRRC42 (protein, UniProt Q9Y546 1-428)
chain: MSYYLSSENHLDPGPIYMRENGQLHMVNLALDGVRSSLQKPRPFRLFPKGFSVELCMNREDDTARKEKTDHFIFTYTREGNLRYSAKSLFSLVLGFISDNVDHIDSLIGFPEQIAEKLFSAAEARQKFTEPGAGLRALQKFTEAYGSLVLCSLCLRNRYLVISEKLEEIKSFRELTCLDLSCCKLGDEHELLEHLTNEALSSVTQLHLKDNCLSDAGVRKMTAPVRVMKRGLENLTLLDLSCNPEITDAGIGYLFSFRKLNCLDISGTGLKDIKTVKHKLQTHIGLVHSKVPLKEFDHSNCKTEGWADQIVLQWERVTAEAVKPRETSEPRAAAQRFYGKRSRAEAPLKCPLADTHMNSSEKLQFYKEKAPDCHGPVLKHEAISSQESKKSKKRPFEESETEQNNSSQPSKQKYVCLAVEDWDLLNSY
B8: MAIP1 (protein, UniProt Q8WWC4 97-291)
chain: STEEKPQQHQKTKMIVLGFSNPINWVRTRIKAFLIWAYFDKEFSITEFSEGAKQAFAHVSKLLSQCKFDLLEELVAKEVLHALKEKVTSLPDNHKNALAANIDEIVFTSTGDISIYYDEKGRKFVNILMCFWYLTSANIPSETLRGASVFQVKLGNQNVETKQLLSASYEFQREFTQGVKPDWTIARIEHSKLLE
B9: CCND3 (protein, UniProt P30281 1-292)
chain: MELLCCEGTRHAPRAGPDPRLLGDQRVLQSLLRLEERYVPRASYFQCVQREIKPHMRKMLAYWMLEVCEEQRCEEEVFPLAMNYLDRYLSCVPTRKAQLQLLGAVCMLLASKLRETTPLTIEKLCIYTDHAVSPRQLRDWEVLVLGKLKWDLAAVIAHDFLAFILHRLSLPRDRQALVKKHAQTFLALCATDYTFAMYPPSMIATGSIGAAVQGLGACSMSGDELTELLAGITGTEVDCLRACQEQIEAALRESLREASQTSSSPAPKAPRGSSSQGPSQTSTPTDVTAIHL

molecular target: 3xFLAG-AMBRA1 (UniProt Q9C0C7); assay: affinity purification with mass spectrometry; anti-FLAG M2 beads, overnight at 4 C, total lysates of ATRT cells (BT12, BT16, CHLA06, CHLA266) expressing 3xFLAG-AMBRA1 against 3xFLAG alone; with and without the CRL inhibitor MLN4924 (interactors against substrates); on-bead digestion, DIA LC-MS

binding, binds:
APPBP2 (from UniProt Q92624 1-585)
ASB7 (from UniProt Q9H672 1-318)
CCND2 (from UniProt P30279 1-289)
CUL4B (from UniProt Q13620 1-913)
DYL1 (from UniProt P63167 1-89)
ELOB (from UniProt Q15370 1-118)
LRRC28 (from UniProt Q86X40 1-367)
NISCH (from UniProt Q9Y2I1 1-1504)
RAB40C (from UniProt Q96S21 1-281)
SOCS4 (from UniProt Q8WXH5 1-440)
B1
B2
B3
B4
B5
B6
B7
B8
B9

molecular target: 3xFLAG-AMBRA1 (UniProt Q9C0C7); assay: affinity purification with mass spectrometry; anti-FLAG M2 beads, lysates of ATRT cell lines expressing 3xFLAG-AMBRA1 or 3xFLAG alone, overnight at 4C, washed with Tris buffer pH 7.4, on-bead digestion, DIA LC-MS; with and without the CRL inhibitor MLN4924

binding, binds:
AURKB (from UniProt Q96GD4 1-344)
